Among the data in PubChem BioAssay AID2003 (Broad Institute, 2009) are activation values, retold here.

This is one part of the list. Results with a measured potency or affinity are listed apart. The source made no clear call on entries shown without one.

The nature of the experiment: PubChem AID 2003. Conditions: H4 cells, SNCA 5'UTR luciferase reporter, luminescence; at 12 µM (top of the series) unless noted. A general note: A reporter such as luciferase makes a cellular process visible.
With `CNC(=O)COC(=O)c1ccc(-c2nc3ccccc3s2)s1`, the activation worked out at 86.1%.

`N#CC1=C2SC=C(c3ccc(Br)cc3)N2CCCC1=O`: the activation was found to be 144%.

For `CC(=O)c1c(C)[nH]c(C(=O)Nc2nccs2)c1C`, the activation was determined as 59.4%.

With `Cc1ccc(-n2nc(C)c(NC(=O)CCl)c2C)cc1C`, the activation came out at 27.3%.

With `O=C(NCC1CCCCC1)c1ccc(F)cc1Cl`, the activation stood at 22.2%.

In the case of `O=C(Nc1nc(-c2ccc3c(c2)OCCO3)cs1)C1CCCC1`, the activation was 38.3%.

As for `Cc1ccc(Sc2c(CO)c(-c3ccccc3)nn2C)cc1`, the activation is -74.3%.

Take `Nc1nc(-c2ccccn2)nc(N)c1Cc1ccccc1F`: the activation came out at 98.6%.

Regarding `CCOC(=O)c1c(-c2ccccc2)cn2c(C)cc(C)nc12`, the activation worked out at 98.1%.

On to `CCN1C(=O)/C(=C/N2CCc3ccccc32)SC1=S`, for which the activation worked out at 41.1%.

As for `Cc1ccc(NC(=O)ON=C2CCCC2)cc1`, the activation is 54.6%.

For the molecule `Cc1ccnc(N(C(=O)Nc2ccccc2)C2=NCC(C)(C)S2)c1`, the activation came out at 73.8%.

Consider `Cc1cccnc1NC(=S)NCCc1ccccc1`, for which the activation was 43.4%.

In the case of `COc1ccc(Nc2cnn(-c3nc4ccccc4s3)c(=O)c2Cl)cc1`, the activation was 76.1%.

Consider `Cc1ccc2nc(-c3ccc(NC(=O)CN4CCN(c5ccccn5)CC4)cc3)sc2c1`, for which the activation is 63.9%.

Regarding `COc1cccc(-c2cn3nc(C)c(C)nc3n2)c1`, the activation is 7.8%.

Regarding `Cn1c(N)c(C(=O)Nc2ccc3ccccc3c2)sc1=S`, the activation was determined as 85.8%.

Take `O=C(Nc1nc2ccsc2c(=O)s1)c1ccc(F)cc1`: the activation amounted to 74%.

On to `O=C(NC1CCCC1)c1cc(-c2cccs2)on1`, for which the activation amounted to 127%.

In the case of `O=c1nc2c(-c3cccc(Br)c3)n[nH]n2c2ccccc12`, the activation came out at 66.5%.

Consider `Cc1ccc2cc(CCNC(=O)c3cccs3)c(=O)[nH]c2c1C`, for which the activation amounted to 31.1%.

On to `Cc1ccc(/C(N)=N/OC(=O)CSc2ccccc2)cc1`, for which the activation came to 69%.

Take `CCN(CC)c1ccc(NC(=O)c2cncc(Br)c2)cc1`: the activation is 44.9%.

On to `Cn1c(C(=O)Nc2ccc3c(c2)OCO3)cc2sccc21`, for which the activation was 67.7%.

On to `COc1ccc(-c2cn(Cc3ccc(C(=O)c4ccccc4)cc3)nn2)cc1`, for which the activation came out at 34.3%.

For the molecule `O=C(NCCC1=CCCCC1)NC12CC3CC(CC(C3)C1)C2`, the activation worked out at 88.2%.

On to `COCCn1c(C)cc(C(=O)CSc2nc3ccccc3c(=O)[nH]2)c1C`, for which the activation stood at 38.4%.

As for `CC(C)(C)NC(=O)COC(=O)c1ccccc1Nc1ccc(SC(F)F)cc1`, the activation is 41.7%.

Turning to `CCn1c(C(=O)OC)cc2c1ccn2-c1ccc(F)cc1`, the activation was found to be 46.4%.

For `N/C(=N\OC(=O)c1cccc(F)c1)c1ccccc1`, the activation was 61.9%.

For `O=C(Nc1ncc(Cc2ccccc2)s1)C1COc2ccccc2O1` (configuration not stated), the activation was 101%.

With `Cc1ccc(NC(=O)c2ccc(OC(=O)CCN3C(=O)c4ccccc4C3=O)cc2)cc1`, the activation is 96.6%.
